Measurements published in article PMC3492431.
Results are given in words; binding and its absence hold for the method and conditions named. Binding can be weak; no strength is given.

Biological target: T1, mouse filensin (mouse (endogenous in lens)) (UniProt A2AMT1)
T1 sequence: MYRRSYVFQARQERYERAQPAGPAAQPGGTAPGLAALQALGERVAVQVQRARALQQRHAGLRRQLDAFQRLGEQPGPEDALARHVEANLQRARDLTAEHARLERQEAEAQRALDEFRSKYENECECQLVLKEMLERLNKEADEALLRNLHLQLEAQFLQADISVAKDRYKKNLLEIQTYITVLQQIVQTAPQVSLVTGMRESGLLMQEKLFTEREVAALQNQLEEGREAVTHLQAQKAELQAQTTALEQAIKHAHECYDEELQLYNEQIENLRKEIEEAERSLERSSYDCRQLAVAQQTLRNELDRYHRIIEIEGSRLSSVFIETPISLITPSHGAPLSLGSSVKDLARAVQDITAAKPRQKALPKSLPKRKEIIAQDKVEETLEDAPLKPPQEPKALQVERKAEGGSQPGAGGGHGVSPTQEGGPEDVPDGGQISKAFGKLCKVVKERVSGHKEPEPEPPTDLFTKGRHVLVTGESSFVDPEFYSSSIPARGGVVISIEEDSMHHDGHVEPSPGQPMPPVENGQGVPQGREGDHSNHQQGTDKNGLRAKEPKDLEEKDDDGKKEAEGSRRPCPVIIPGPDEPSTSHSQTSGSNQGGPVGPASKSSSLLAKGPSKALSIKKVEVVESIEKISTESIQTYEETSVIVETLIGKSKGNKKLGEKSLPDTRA
Test: far-Western, overlay or dot blot; mouse lens extracts (CP49+/+ and CP49-/-) separated by SDS-PAGE and transferred to nitrocellulose; blots incubated overnight at 4°C with 2 µg/ml purified recombinant Tmod in OverWash buffer (80 mM KCl, 2 mM MgCl2, 1 mM EGTA, 0.2% Triton X-100, 20 mM Hepes, pH 7.3) + 2% BSA; bound Tmod detected with antisera to Tmod1 or Tmod4; only the binder purified

purified recombinant chicken Tmod4 (tropomodulin 4)
binding: binds
